Values quoted from earlier work as cited in patent publication US20260256926A1, “BIFACIAL PEPTIDE NUCLEIC ACID PROBES AND METHODS OF USING THEREOF” (Ohio State Innovation Foundation, priority 2022, published 2026).
At least one compound was matched to its structure with a doubt left.

Conditions: reference standard; cited from earlier work

O=C1OC2(c3ccc(O)cc3Oc3cc(O)ccc32)c2ccccc21 [fluorescein]
quantum yield of standard: 92%
